{"source": "patent US4874844A", "about": "“Tripeptide with immunostimulating activity” (Ellem Industria Farmaceutica S.p.A., priority 1986, dated 1989)", "key": {"human T cells [1]": {"system": "human T cells", "test": "Effect on RNA synthesis (3H-uridine incorporation)", "type": "cell-based", "conditions": "24 hrs. of incubation"}, "[2]": {"system": "human peripheral blood mononuclear cells (PBMC)", "test": "In vitro stimulation of lymphokine production: TCGF (IL-2) activity of PBMC supernatants on T cells", "type": "cell-based", "conditions": "Supt. from PBL + PHA + ELS1 (1 ug/ml)"}, "[3]": {"system": "mouse T cell precursors (nylon wool effluent splenocytes of athymic nu/nu mice)", "test": "In vitro induction of Thy 1.2 antigen", "type": "cell-based", "conditions": "for % THY 1.2+ CELLS MEAN +/- S.E.: 18 hours"}, "human T cells [4]": {"system": "human T cells", "test": "Effect on DNA synthesis (3H-thymidine incorporation)", "type": "cell-based", "conditions": "3 days of incubation"}, "[5]": {"system": "spleen cells expressing Thy 1.2 antigen", "test": "In vivo induction of Thy 1.2 antigen", "set-up": "species or system mice", "conditions": "for % THY 1.2+ CELLS: 4 consecutive days, spleen cells"}, "[6]": {"system": "T lymphocytes or mixtures of T and B lymphocytes", "test": "In vitro increase of cell number", "type": "cell-based", "conditions": "5 ug/ml every fourth day for 30 days; observed between day 10 and day 15"}}, "note": "Part of at least one peptide drawing is inferred or uncertain, most often the ends. Peptide text beside a SMILES is read from it.", "data": [{"compound": "N=C(N)NCCC[C@H](N)C(=O)N[C@@H](CCCCN)C(=O)N[C@@H](CCC(=O)O)C(=O)O", "note": "[ELS1, Arg-Lys-Glu] (H-Arg-Lys-Glu-OH)", "values": [{"measurement": "RNA synthesis, incorporation of 3H-uridine, counts per minute", "setting": "human T cells [1]; T + ELS1 + PHA, 0.1 ug/ml", "value": 32729, "unit": "CPM"}, {"measurement": "RNA synthesis, incorporation of 3H-uridine, counts per minute", "setting": "human T cells [1]; T + ELS1 + PHA, 1 ug/ml", "value": 34966, "unit": "CPM"}, {"measurement": "RNA synthesis, incorporation of 3H-uridine, counts per minute", "setting": "human T cells [1]; T + ELS1 + PHA, 10 ug/ml", "value": 34497, "unit": "CPM"}, {"measurement": "RNA synthesis, incorporation of 3H-uridine, counts per minute", "setting": "human T cells [1]; T + ELS1 + PHA, 20 ug/ml", "value": 31764, "unit": "CPM"}, {"measurement": "RNA synthesis, incorporation of 3H-uridine, counts per minute", "setting": "human T cells [1]; T + ELS1, 0.1 ug/ml", "value": 5336, "unit": "CPM"}, {"measurement": "RNA synthesis, incorporation of 3H-uridine, counts per minute", "setting": "human T cells [1]; T + ELS1, 1 ug/ml", "value": 4868, "unit": "CPM"}, {"measurement": "RNA synthesis, incorporation of 3H-uridine, counts per minute", "setting": "human T cells [1]; T + ELS1, 10 ug/ml", "value": 5104, "unit": "CPM"}, {"measurement": "RNA synthesis, incorporation of 3H-uridine, counts per minute", "setting": "human T cells [1]; T + ELS1, 20 ug/ml", "value": 5272, "unit": "CPM"}, {"measurement": "TCGF ACTIVITY (C.P.M.)", "setting": "[2]; EXPERIMENT 1, 3.05 % Sup.", "value": 624, "unit": "C.P.M."}, {"measurement": "TCGF ACTIVITY (C.P.M.)", "setting": "[2]; EXPERIMENT 1, 6.25 % Sup.", "value": 438, "unit": "C.P.M."}, {"measurement": "TCGF ACTIVITY (C.P.M.)", "setting": "[2]; EXPERIMENT 1, 12.5 % Sup.", "value": 1062, "unit": "C.P.M."}, {"measurement": "TCGF ACTIVITY (C.P.M.)", "setting": "[2]; EXPERIMENT 1, 25 % Sup.", "value": 1926, "unit": "C.P.M."}, {"measurement": "TCGF ACTIVITY (C.P.M.)", "setting": "[2]; EXPERIMENT 1, 50 % Sup.", "value": 3296, "unit": "C.P.M."}, {"measurement": "TCGF ACTIVITY (C.P.M.)", "setting": "[2]; EXPERIMENT 2, 3.125 % Sup.", "value": 1908, "unit": "C.P.M."}, {"measurement": "TCGF ACTIVITY (C.P.M.)", "setting": "[2]; EXPERIMENT 2, 6.25 % Sup.", "value": 4424, "unit": "C.P.M."}, {"measurement": "TCGF ACTIVITY (C.P.M.)", "setting": "[2]; EXPERIMENT 2, 12.5 % Sup.", "value": 6480, "unit": "C.P.M."}, {"measurement": "TCGF ACTIVITY (C.P.M.)", "setting": "[2]; EXPERIMENT 2, 25 % Sup.", "value": 9329, "unit": "C.P.M."}, {"measurement": "TCGF ACTIVITY (C.P.M.)", "setting": "[2]; EXPERIMENT 2, 50 % Sup.", "value": 11656, "unit": "C.P.M."}, {"measurement": "concentration of optimum response for appearance of the marker Thy 1.2 on immature T cells", "setting": "[3]; bell-shaped dose-response curve", "value": 1, "unit": "µg/mL"}, {"measurement": "% THY 1.2+ CELLS DIFFERENCE (with vs without tripeptide)", "setting": "[3]; peptide 0.0001 mcg/ml", "value": "+8%"}, {"measurement": "% THY 1.2+ CELLS MEAN +/- S.E.", "setting": "[3]; peptide 0.0001 mcg/ml", "value": "19 +/- 1.2%"}, {"measurement": "% THY 1.2+ CELLS DIFFERENCE (with vs without tripeptide)", "setting": "[3]; peptide 0.001 mcg/ml", "value": "+23%"}, {"measurement": "% THY 1.2+ CELLS MEAN +/- S.E.", "setting": "[3]; peptide 0.001 mcg/ml", "value": "34 +/- 3.3%"}, {"measurement": "% THY 1.2+ CELLS DIFFERENCE (with vs without tripeptide)", "setting": "[3]; peptide 0.01 mcg/ml", "value": "+33%"}, {"measurement": "% THY 1.2+ CELLS MEAN +/- S.E.", "setting": "[3]; peptide 0.01 mcg/ml", "value": "44 +/- 3.1%"}, {"measurement": "% THY 1.2+ CELLS DIFFERENCE (with vs without tripeptide)", "setting": "[3]; peptide 0.1 mcg/ml", "value": "+39%"}, {"measurement": "% THY 1.2+ CELLS MEAN +/- S.E.", "setting": "[3]; peptide 0.1 mcg/ml", "value": "50 +/- 1.2%"}, {"measurement": "% THY 1.2+ CELLS DIFFERENCE (with vs without tripeptide)", "setting": "[3]; peptide 1 mcg/ml", "value": "+43%"}, {"measurement": "% THY 1.2+ CELLS MEAN +/- S.E.", "setting": "[3]; peptide 1 mcg/ml", "value": "54 +/- 5.0%"}, {"measurement": "% THY 1.2+ CELLS DIFFERENCE (with vs without tripeptide)", "setting": "[3]; peptide 10 mcg/ml", "value": "+34%"}, {"measurement": "% THY 1.2+ CELLS MEAN +/- S.E.", "setting": "[3]; peptide 10 mcg/ml", "value": "45 +/- 4.9%"}, {"measurement": "% THY 1.2+ CELLS DIFFERENCE (with vs without tripeptide)", "setting": "[3]; peptide 20 mcg/ml", "value": "+29%"}, {"measurement": "% THY 1.2+ CELLS MEAN +/- S.E.", "setting": "[3]; peptide 20 mcg/ml", "value": "40 +/- 1.2%"}, {"measurement": "% THY 1.2+ CELLS DIFFERENCE (with vs without tripeptide)", "setting": "[3]; peptide 50 mcg/ml", "value": "+17%"}, {"measurement": "% THY 1.2+ CELLS MEAN +/- S.E.", "setting": "[3]; peptide 50 mcg/ml", "value": "28 +/- 4.5%"}, {"measurement": "% THY 1.2+ CELLS DIFFERENCE (with vs without tripeptide)", "setting": "[3]; peptide 100 mcg/ml", "value": "+10%"}, {"measurement": "% THY 1.2+ CELLS MEAN +/- S.E.", "setting": "[3]; peptide 100 mcg/ml", "value": "21 +/- 1.7%"}, {"measurement": "% THY 1.2+ CELLS DIFFERENCE (with vs without tripeptide)", "setting": "[3]; peptide 200 mcg/ml", "value": "+5%"}, {"measurement": "% THY 1.2+ CELLS MEAN +/- S.E.", "setting": "[3]; peptide 200 mcg/ml", "value": "16 +/- 2.4%"}, {"measurement": "DNA synthesis, incorporation of 3H-thymidine, counts per minute", "setting": "human T cells [4]; T + ELS1 + PHA, 0.l ug/ml", "value": 6810, "unit": "CPM"}, {"measurement": "DNA synthesis, incorporation of 3H-thymidine, counts per minute", "setting": "human T cells [4]; T + ELS1 + PHA, 0.01 ug/ml", "value": 5908, "unit": "CPM"}, {"measurement": "DNA synthesis, incorporation of 3H-thymidine, counts per minute", "setting": "human T cells [4]; T + ELS1 + PHA, 1 ug/ml", "value": 7264, "unit": "CPM"}, {"measurement": "DNA synthesis, incorporation of 3H-thymidine, counts per minute", "setting": "human T cells [4]; T + ELS1 + PHA, 10 ug/ml", "value": 9560, "unit": "CPM"}, {"measurement": "DNA synthesis, incorporation of 3H-thymidine, counts per minute", "setting": "human T cells [4]; T + ELS1, 0.l ug/ml", "value": 242, "unit": "CPM"}, {"measurement": "DNA synthesis, incorporation of 3H-thymidine, counts per minute", "setting": "human T cells [4]; T + ELS1, 0.01 ug/ml", "value": 262, "unit": "CPM"}, {"measurement": "DNA synthesis, incorporation of 3H-thymidine, counts per minute", "setting": "human T cells [4]; T + ELS1, 1 ug/ml", "value": 196, "unit": "CPM"}, {"measurement": "DNA synthesis, incorporation of 3H-thymidine, counts per minute", "setting": "human T cells [4]; T + ELS1, 10 ug/ml", "value": 240, "unit": "CPM"}, {"measurement": "% THY 1.2+ CELLS", "setting": "[5]; Oral, 42 ug/kg", "value": 3, "unit": "%"}, {"measurement": "% THY 1.2+ CELLS", "setting": "[5]; Oral, 420 ug/kg", "value": 5, "unit": "%"}, {"measurement": "% THY 1.2+ CELLS", "setting": "[5]; Oral, 1055 ug/kg", "value": 7, "unit": "%"}, {"measurement": "% THY 1.2+ CELLS", "setting": "[5]; Oral, 4220 ug/kg", "value": 14, "unit": "%"}, {"measurement": "% THY 1.2+ CELLS", "setting": "[5]; Oral, 8440 ug/kg", "value": 15, "unit": "%"}, {"measurement": "maturation of splenocytes", "setting": "[5]; after both oral and i.p. administration", "value": "able to induce the maturation of splenocytes"}, {"measurement": "% THY 1.2+ CELLS", "setting": "[5]; i.p., 42 ug/kg", "value": 6, "unit": "%"}, {"measurement": "% THY 1.2+ CELLS", "setting": "[5]; i.p., 420 ug/kg", "value": 8, "unit": "%"}, {"measurement": "% THY 1.2+ CELLS", "setting": "[5]; i.p., 1055 ug/kg", "value": 12, "unit": "%"}, {"measurement": "% THY 1.2+ CELLS", "setting": "[5]; i.p., 2110 ug/kg", "value": 18, "unit": "%"}, {"measurement": "% THY 1.2+ CELLS", "setting": "[5]; i.p., 4220 ug/kg", "value": 17, "unit": "%"}, {"measurement": "% THY 1.2+ CELLS", "setting": "[5]; i.p., 8440 ug/kg", "value": 16, "unit": "%"}, {"measurement": "optimal dosage for in vivo induction of Thy 1.2", "setting": "[5]; plateau response with higher dosages", "value": 2110, "unit": "µg/kg"}, {"measurement": "maximum increase of cell number with respect to control cultures", "setting": "[6]", "value": "+50%"}]}]}
